Results published in PubChem BioAssay AID2685 (National Center for Advancing Translational Sciences (NCATS), 2010).
The other results are listed elsewhere or left out. Further columns of the screen follow, without active or inactive calls. The list favours compounds with an active or inconclusive main result. Potencies come from curve fits of mixed quality, noted in brackets.

Experiment: qHTS Assay for Lipid Storage Modulators in Drosophila S3 Cells;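 on cell number change: cells counted by Cell Tracker Red CMTPX staining in the red channel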
Details: BODIPY lipid droplet fluorescence, 18-24 h; for cell number change: measured here: cell count max response, cells fed with added oleic acid
How it was run: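 Laser-scanning cytometry quantifies lipid droplet accumulation (500–530 nm total intensity; droplet/cell object ratio) in oleic acid-fed (400 uM added) Drosophila S3 cells treated with a concentration series. 20 uM Triacsin C defined 100% inhibition.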

[1] = measured here: lipid fluorescence (Fed channel) AC50, cells fed with added oleic acid
[2] = measured here: cell number channel AC50, cells fed with added oleic acid

Row | Compound | cell number change [%] | AC50 [1] | AC50 [2]
1 | Cc1ccc(NC(=O)CCC(=O)NNC(=S)Nc2ccc(F)cc2)c(C)c1 | 3.04 | 29.1 µM [rising, partial curve, poor fit] | 
2 | O=C(COC(=O)Cc1ccc(S(=O)(=O)N2CCOCC2)s1)NCc1ccccc1 | 0.486 | 0.731 µM [falling, full curve] | 
3 | Cc1ccc(S(=O)(=O)N(C)CCCC(=O)n2nc(C)cc2C)cc1 | -24.8 | 2.31 µM [falling, full curve] | 4.11 µM [falling, single point]
4 | Cc1ccc(NC(=O)Cc2nc(CCl)cs2)cc1 | 4.77 |  | 0.731 µM [falling, partial curve, poor fit]
5 | O=C(Nc1cccc(Oc2c(F)c(F)c(F)c(F)c2F)c1)N1C[C@@H]2C[C@@H](C1)c1cccc(=O)n1C2 | -3.41 | 2.06 µM [rising, full curve, poor fit] | 
6 | Nc1nc(CN2CCN(c3ccccc3F)CC2)nc(Nc2ccccc2)n1 |  | 2.59 µM [rising, full curve] | 2.31 µM [rising, partial curve]
7 | CC(=O)NC12CC3CC(C1)CC(C(=O)N1CCN(S(=O)(=O)c4ccc(C(C)C)cc4)CC1)(C3)C2 | 1.81 | 0.164 µM [rising, full curve, poor fit] | 
8 | O=C(Nc1cccc2ccccc12)C(=O)C1C(=O)Nc2ccccc21 (stereo not given) | 14.4 | 4.11 µM [rising, full curve, poor fit] | 
9 | Cc1ccc2cc(C(c3nnnn3C3CCCC3)N3CCOCC3)c(=O)[nH]c2c1C (stereo not given) | -14.1 | 6.51 µM [falling, single point] | 7.31 µM [falling, single point]
10 | CN(C(=O)c1ccc2c(c1)C(=O)N(CCC1=CCCCC1)C2=O)C1CCCCC1 | -38.1 | 23.1 µM [falling, partial curve] | 32.6 µM [falling, single point]
11 | COc1ccc(OC)c(NC(=O)CSc2nc(C)cs2)c1 | 51.3 | 0.58 µM [rising, single point] | 4.61 µM [rising, full curve]
12 | CC(Sc1nc(-c2ccccc2)cc(C(F)(F)F)n1)C(=O)N1CCOCC1 (stereo not given) | -32.4 | 9.2 µM [falling, partial curve] | 9.2 µM [falling, partial curve]
13 | C=CCc1cccc2cc(C(=O)NNC(=O)CC#N)c(=O)oc12 | 25.7 | 2.31 µM [rising, full curve] | 
14 | CCOc1ccc(CCNC(=O)COC(=O)Cn2nc(C)c([N+](=O)[O-])c2C)cc1OCC | 4.31 | 23.1 µM [falling, partial curve, poor fit] | 
15 | NC(=O)C1CCN(CC(=O)Nc2ccc(S(=O)(=O)N3CCOCC3)cc2)CC1 | 6.96 |  | 
16 | Clc1ccccc1-c1nc2ccccc2c2nncn12 | 45.5 |  | 7.31 µM [rising, partial curve]
17 | O=C(Nc1ccc(S(=O)(=O)Nc2ncccn2)cc1)C12CC3CC(CC(C3)C1)C2 | -2.79 | 3.66 µM [falling, partial curve] | 
18 | O=C(Nc1cccc(C(F)(F)F)c1)C1CCCN(c2ncccn2)C1 (stereo not given) | 9.29 |  | 0.366 µM [rising, partial curve, poor fit]
19 | O=C(/C=C/c1ccc(Cl)cc1)NCc1cccs1 | 35.1 | 18.4 µM [rising, single point] | 20.6 µM [rising, single point]

Row | Compound | cell number change [%] | AC50 [1] | AC50 [2]
20 | Cc1ccc(/C=N/NC(=S)N2CCOCC2)cc1 | 14.2 | 16.4 µM [rising, partial curve, poor fit] | 
21 | CN1C(C(=O)NCc2cccc(C(F)(F)F)c2)CC2Cn3c(nc4cc(Cl)c(Cl)cc43)C21 (stereo not given) | 10.8 |  | 
22 | Cc1cc(N)c(-n2cc3c(=O)n(C)c(=O)n(C)c3c2)cc1C | 13.6 | 1.46 µM [rising, full curve] | 
23 | CCc1ccc(C2C(C#N)=C(N)Oc3cc(N)ccc32)cc1 (stereo not given) |  | 29.1 µM [falling, single point] | 
24 | CN(C)N1C(N)=C(C#N)C(c2ccccc2)C2=C1CC(C)(C)CC2=O (stereo not given) | 21.2 | 0.184 µM [rising, full curve] | 
25 | Cc1ccccc1-n1c(SCC(=O)N2CCC(C(=O)O)CC2)nnc1-c1ccncc1 | 21 |  | 
26 | CC(C)(C)N(Cc1ccccc1)C(=O)COC(=O)C1CCN(c2ccc(C(F)(F)F)cn2)CC1 | -21.6 |  | 
27 | O=C(O)c1ccc(Nc2ncc([N+](=O)[O-])cc2[N+](=O)[O-])cc1 | -50.6 | 6.51 µM [falling, single point] | 6.51 µM [falling, single point]
28 | CCOc1ccc(CN(C)C(=O)CNC(=O)Cc2cccc3ccccc23)cc1 | -6.05 |  | 
29 | COc1ccc(C(C[N+](=O)[O-])c2c(-c3ccccc3)cc3ccccn23)cc1 (stereo not given) | -45.4 | 0.82 µM [falling, full curve, poor fit] | 0.0231 µM [falling, full curve, poor fit]
30 | C=CCn1c(SCC(=O)Nc2ccc(C)cc2C)nnc1-c1cccnc1 | 5.73 | 6.51 µM [rising, full curve, poor fit] | 
31 | CCCCN1CC(=O)N2[C@H]3c4cc(OC)ccc4OC[C@@H]3[C@H](C(=O)OCC)[C@]2(C)C1=O | -8.7 | 0.092 µM [rising, full curve, poor fit] | 
32 | O=C1N/C(=C/c2cccn2-c2ccccc2)C(=O)N1c1cccc(Cl)c1 | -30.8 |  | 23.1 µM [falling, partial curve]
33 | CCN(CC)Cc1c(C(=O)N/N=C/c2cccs2)nnn1-c1nonc1N | -31.9 |  | 29.1 µM [falling, single point]
34 | CC1=NN(c2ccccc2)C(=O)/C1=C\C=C\c1ccccc1 | -67 | 8.2 µM [falling, partial curve] | 10.3 µM [falling, partial curve]
35 | N=c1n(Cc2ccc(Cl)cc2)c2ccccc2n1CC(O)c1ccco1 (stereo not given) | -19.3 |  | 
36 | CC(=O)O[C@H]1C(=O)[C@@]2(C)[C@H]([C@H](OC(=O)c3ccccc3)[C@]3(O)C[C@H](OC(=O)[C@H](O)[C@@H](NC(=O)c4ccccc4)c4ccccc4)C(C)=C1C3(C)C)[C@]1(OC(C)=O)CO[C@@H]1C[C@@H]2O | -13.4 | 2.31 µM [falling, full curve, poor fit] | 
37 | Cc1ccc2nc(NNC(=O)c3ccc4c(c3)OCCO4)sc2c1 |  | 18.4 µM [rising, partial curve, poor fit] | 
38 | COc1ccc(C)cc1N(C(=O)COc1ccccc1)c1nc2ccccc2s1 | -1.21 | 0.13 µM [rising, full curve, poor fit] | 

Reprinted from the results shown, 2 compounds:
Row | Compound | cell number change [%] | AC50 [1] | AC50 [2]
20 | Cc1ccc(/C=N/NC(=S)N2CCOCC2)cc1 | 14.2 | 16.4 µM [rising, partial curve, poor fit] | 
21 | CN1C(C(=O)NCc2cccc(C(F)(F)F)c2)CC2Cn3c(nc4cc(Cl)c(Cl)cc43)C21 (stereo not given) | 10.8 |  | 

(next part)

Row | Compound | cell number change [%] | AC50 [1] | AC50 [2]
39 | CCNS(=O)(=O)c1ccc(CCC(=O)NCc2ccncc2)cc1 | 1.1 | 23.1 µM [rising, single point] | 
40 | O=C(OCn1ncc(Br)c(Br)c1=O)c1c(F)cccc1F | -75.1 | 6.51 µM [rising, single point] | 29.1 µM [falling, single point]
41 | COc1cccc(OC)c1C(=O)Nc1cc(C)nn1-c1nc2ccccc2[nH]1 | 2.83 |  | 
42 | COC(=O)C1=C(O)/C(=C\c2ccc(OCC(=O)Nc3ccc(OC)cc3)cc2)N=C1C | 4.48 | 5.8 µM [rising, single point] | 
43 | Cc1ccsc1C(=O)N1CCCC(C(=O)c2cc(F)ccc2F)C1 (stereo not given) | -11.1 | 0.92 µM [falling, full curve, poor fit] | 
44 | CCOc1ncccc1C(=O)Nc1ccc(OC)c(S(=O)(=O)N2CCOCC2)c1 | -6.19 |  | 
45 | CCOc1cc(/C=C(/C#N)c2nc3ccccc3[nH]2)ccc1Oc1ccc([N+](=O)[O-])cn1 | 50.9 | 0.116 µM [rising, full curve, poor fit] | 32.6 µM [rising, single point]
46 | OCCN(CCO)c1ncnc2c1sc1nc(N3CCOCC3)c3c(c12)CCCC3 | -16.2 | 16.4 µM [rising, partial curve] | 
47 | COc1ccccc1OCCC(=O)Nc1cccc(S(=O)(=O)N2CCOCC2)c1 | -8.4 |  | 
48 | COc1ccccc1CNC(=O)C(C)NS(=O)(=O)c1ccccc1 (stereo not given) | -38.9 |  | 29.1 µM [falling, single point]
49 | Cc1ccc(-c2csc(NC(=O)C3CC=CCC3C(=O)O)c2C(=O)OC(C)C)cc1 (stereo not given) | 0.712 |  | 
50 | O=S(=O)(c1ccc(NC(=S)N/N=C/c2c3ccccc3cc3ccccc23)cc1)N1CCOCC1 | 34.1 |  | 14.6 µM [rising, single point]
51 | CC(C)C(=O)NC(c1ccco1)c1c(O)ccc2ccccc12 (stereo not given) | 0.564 | 1.3 µM [falling, full curve, poor fit] | 
52 | Cn1cnc2c(cnn2-c2ccccc2)c1=O | 32.2 | 0.00461 µM [rising, full curve, poor fit] | 18.4 µM [rising, partial curve, poor fit]
53 | CCn1c(=NC(=O)c2ccc(S(=O)(=O)N3CCOCC3)cc2)sc2cccc(OC)c21 |  | 29.1 µM [falling, partial curve] | 
54 | COc1ccc(S(=O)(=O)N2CCN(c3ccccc3OC)CC2)cc1 | 6.42 | 20.6 µM [falling, single point] | 
55 | O=C(/C=C/c1cccc([N+](=O)[O-])c1)N1CCN(c2ccccc2F)CC1 | 2.16 | 4.11 µM [rising, single point] | 
56 | CN(C)C(=O)c1ccc(NC(=O)c2ccc(-c3ccc(Cl)cc3)o2)cc1 | -12.7 |  | 
